Results: publication PMC4161446
No constants are given. Whether binding was seen depends on the method and setting. Binding seen in cells or lysates may run through a third protein. A yes stands for co-enrichment or nearness to the bait. Other partners may have been found.

T1: Csl4-TAP (S. cerevisiae) (UniProt P53859)
T1 sequence: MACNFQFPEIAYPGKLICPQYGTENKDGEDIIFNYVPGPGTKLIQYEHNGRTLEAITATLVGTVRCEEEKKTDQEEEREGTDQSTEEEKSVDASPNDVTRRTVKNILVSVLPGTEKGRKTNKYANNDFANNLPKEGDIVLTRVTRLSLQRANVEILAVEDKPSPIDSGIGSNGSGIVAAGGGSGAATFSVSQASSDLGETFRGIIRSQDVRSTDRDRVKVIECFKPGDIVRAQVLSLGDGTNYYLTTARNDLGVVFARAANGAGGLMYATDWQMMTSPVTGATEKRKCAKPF

B1: Pwp2 (protein, UniProt P25635 1-923)
chain: MKSDFKFSNLLGTVYRQGNITFSDDGKQLLSPVGNRVSVFDLINNKSFTFEYEHRKNIAAIDLNKQGTLLISIDEDGRAILVNFKARNVLHHFNFKEKCSAVKFSPDGRLFALASGRFLQIWKTPDVNKDRQFAPFVRHRVHAGHFQDITSLTWSQDSRFILTTSKDLSAKIWSVDSEEKNLAATTFNGHRDYVMGAFFSHDQEKIYTVSKDGAVFVWEFTKRPSDDDDNESEDDDKQEEVDISKYSWRITKKHFFYANQAKVKCVTFHPATRLLAVGFTSGEFRLYDLPDFTLIQQLSMGQNPVNTVSVNQTGEWLAFGSSKLGQLLVYEWQSESYILKQQGHFDSTNSLAYSPDGSRVVTASEDGKIKVWDITSGFCLATFEEHTSSVTAVQFAKRGQVMFSSSLDGTVRAWDLIRYRNFRTFTGTERIQFNCLAVDPSGEVVCAGSLDNFDIHVWSVQTGQLLDALSGHEGPVSCLSFSQENSVLASASWDKTIRIWSIFGRSQQVEPIEVYSDVLALSMRPDGKEVAVSTLKGQISIFNIEDAKQVGNIDCRKDIISGRFNQDRFTAKNSERSKFFTTIHYSFDGMAIVAGGNNNSICLYDVPNEVLLKRFIVSRNMALNGTLEFLNSKKMTEAGSLDLIDDAGENSDLEDRIDNSLPGSQRGGDLSTRKMRPEVRVTSVQFSPTANAFAAASTEGLLIYSTNDTILFDPFDLDVDVTPHSTVEALREKQFLNALVMAFRLNEEYLINKVYEAIPIKEIPLVASNIPAIYLPRILKFIGDFAIESQHIEFNLIWIKALLSASGGYINEHKYLFSTAMRSIQRFIVRVAKEVVNTTTDNKYTYRFLVSTDGSMEDGAADDDEVLLKDDADEDNEENEENDVVMESDDEEGWIGFNGKDNKLPLSNENDSSDEEENEKELP
B2: Utp4 (protein, UniProt Q06679 1-776)
chain: MSSSLLSVLKEKSRSLKIRNKPVKMTSQERMIVHRCRFVDFTPATITSLAFSHKSNINKLTPSDLRLAIGRSNGNIEIWNPRNNWFQEMVIEGGKDRSIEGLCWSNVNGESLRLFSIGGSTVVTEWDLATGLPLRNYDCNSGVIWSISINDSQDKLSVGCDNGTVVLIDISGGPGVLEHDTILMRQEARVLTLAWKKDDFVIGGCSDGRIRIWSAQKNDENMGRLLHTMKVDKAKKESTLVWSVIYLPRTDQIASGDSTGSIKFWDFQFATLNQSFKAHDADVLCLTTDTDNNYVFSAGVDRKIFQFSQNTNKSQKNNRWVNSSNRLLHGNDIRAICAYQSKGADFLVSGGVEKTLVINSLTSFSNGNYRKMPTVEPYSKNVLVNKEQRLVVSWSESTVKIWTMGTDSSTEQNYKLVCKLTLKDDQNISTCSLSPDGQVLVVGRPSTTKVFHLQPVGNKLKVTKLDNDLLLRTSTKLVKFIDNSKIVICSCEDDVFIVDLESEEDEKPQEVELLEVTSTKSSIKVPYINRINHLEVDQNIAVISRGCGVVDILDLKARISKPLARLNNFITAVHINTSRKSVVVITADNKIYEFNMNLNSEAENEDSESVLTQWSKNNTDNLPKEWKTLKENCVGIFSDIENSSRLWFWGATWISRIDFDVDFPINKRRKQKKRTHEGLTITDESNFMNDEEDDEDDDIDMEISENLNVLLNQGNKIKSTDVQRNEESSGHFFFTDKYKPLLFVDLISSNELAIIERNPLTFHSKQKAFIQPKLVF
B3: Utp13 (protein, UniProt Q05946 1-817)
chain: MDLKTSYKGISLNPIYAGSSAVATVSENGKILATPVLDEINIIDLTPGSRKILHKISNEDEQEITALKLTPDGQYLTYVSQAQLLKIFHLKTGKVVRSMKISSPSYILDADSTSTLLAVGGTDGSIIVVDIENGYITHSFKGHGGTISSLKFYGQLNSKIWLLASGDTNGMVKVWDLVKRKCLHTLQEHTSAVRGLDIIEVPDNDEPSLNLLSGGRDDIINLWDFNMKKKCKLLKTLPVNQQVESCGFLKDGDGKRIIYTAGGDAIFQLIDSESGSVLKRTNKPIEELFIIGVLPILSNSQMFLVLSDQTLQLINVEEDLKNDEDTIQVTSSIAGNHGIIADMRYVGPELNKLALATNSPSLRIIPVPDLSGPEASLPLDVEIYEGHEDLLNSLDATEDGLWIATASKDNTAIVWRYNENSCKFDIYAKYIGHSAAVTAVGLPNIVSKGYPEFLLTASNDLTIKKWIIPKPTASMDVQIIKVSEYTRHAHEKDINALSVSPNDSIFATASYDKTCKIWNLENGELEATLANHKRGLWDVSFCQYDKLLATSSGDKTVKIWSLDTFSVMKTLEGHTNAVQRCSFINKQKQLISCGADGLIKIWDCSSGECLKTLDGHNNRLWALSTMNDGDMIVSADADGVFQFWKDCTEQEIEEEQEKAKLQVEQEQSLQNYMSKGDWTNAFLLAMTLDHPMRLFNVLKRALGESRSRQDTEEGKIEVIFNEELDQAISILNDEQLILLMKRCRDWNTNAKTHTIAQRTIRCILMHHNIAKLSEIPGMVKIVDAIIPYTQRHFTRVDNLVEQSYILDYALVEMDKLF
B4: Utp5 (protein, UniProt Q04177 1-643)
chain: MDSPVLQSAYDPSGQYLCYVTVALDKQRVGVQPTQRATSSGVDTVWNENFLYLEDSKLKVTCLKWVNLASSDTVAIILGMNNGEIWLYSVLANEVTYKFTTGNSYEIKDIDLMGNQLWCIDSSDAFYQFDLLQFKLLQHFRINNCVQLNKLTIVPAGDSVAQLLVASHSISLIDIEEKKVVMTFPGHVSPVSTLQVITNEFFISGAEGDRFLNVYDIHSGMTKCVLVAESDIKELSHSGQADSIAVTTEDGSLEIFVDPLVSSSTKKRGNKSKKSSKKIQIVSKDGRKVPIYNAFINKDLLNVSWLQNATMPYFKNLQWREIPNEYTVEISLNWNNKNKSADRDLHGKDLASATNYVEGNARVTSGDNFKHVDDAIKSWERELTSLEQEQAKPPQANELLTETFGDKLESSTVARISGKKTNLKGSNLKTATTTGTVTVILSQALQSNDHSLLETVLNNRDERVIRDTIFRLKPALAVILLERLAERIARQTHRQGPLNVWVKWCLIIHGGYLVSIPNLMSTLSSLHSTLKRRSDLLPRLLALDARLDCTINKFKTLNYEAGDIHSSEPVVEEDEDDVEYNEELDDAGLIEDGEESYGSEEEEEGDSDNEEEQKHTSSKQDGRLETEQSDGEEEAGYSDVEME
B5: Rps7A (protein, UniProt P26786 1-190)
chain: MSAPQAKILSQAPTELELQVAQAFVELENSSPELKAELRPLQFKSIREIDVAGGKKALAIFVPVPSLAGFHKVQTKLTRELEKKFQDRHVIFLAERRILPKPSRTSRQVQKRPRSRTLTAVHDKILEDLVFPTEIVGKRVRYLVGGNKIQKVLLDSKDVQQIDYKLESFQAVYNKLTGKQIVFEIPSETH
B6: Rrp44 (protein, UniProt Q08162 1-1001)
chain: MSVPAIAPRRKRLADGLSVTQKVFVRSRNGGATKIVREHYLRSDIPCLSRSCTKCPQIVVPDAQNELPKFILSDSPLELSAPIGKHYVVLDTNVVLQAIDLLENPNCFFDVIVPQIVLDEVRNKSYPVYTRLRTLCRDSDDHKRFIVFHNEFSEHTFVERLPNETINDRNDRAIRKTCQWYSEHLKPYDINVVLVTNDRLNREAATKEVESNIITKSLVQYIELLPNADDIRDSIPQMDSFDKDLERDTFSDFTFPEYYSTARVMGGLKNGVLYQGNIQISEYNFLEGSVSLPRFSKPVLIVGQKNLNRAFNGDQVIVELLPQSEWKAPSSIVLDSEHFDVNDNPDIEAGDDDDNNESSSNTTVISDKQRRLLAKDAMIAQRSKKIQPTAKVVYIQRRSWRQYVGQLAPSSVDPQSSSTQNVFVILMDKCLPKVRIRTRRAAELLDKRIVISIDSWPTTHKYPLGHFVRDLGTIESAQAETEALLLEHDVEYRPFSKKVLECLPAEGHDWKAPTKLDDPEAVSKDPLLTKRKDLRDKLICSIDPPGCVDIDDALHAKKLPNGNWEVGVHIADVTHFVKPGTALDAEGAARGTSVYLVDKRIDMLPMLLGTDLCSLKPYVDRFAFSVIWELDDSANIVNVNFMKSVIRSREAFSYEQAQLRIDDKTQNDELTMGMRALLKLSVKLKQKRLEAGALNLASPEVKVHMDSETSDPNEVEIKKLLATNSLVEEFMLLANISVARKIYDAFPQTAMLRRHAAPPSTNFEILNEMLNTRKNMSISLESSKALADSLDRCVDPEDPYFNTLVRIMSTRCMMAAQYFYSGAYSYPDFRHYGLAVDIYTHFTSPIRRYCDVVAHRQLAGAIGYEPLSLTHRDKNKMDMICRNINRKHRNAQFAGRASIEYYVGQVMRNNESTETGYVIKVFNNGIVVLVPKFGVEGLIRLDNLTEDPNSAAFDEVEYKLTFVPTNSDKPRDVYVFDKVEVQVRSVMDPITSKRKAELLLK

These binders were tested against T1, Csl4-TAP (S. cerevisiae) (assay: affinity purification with mass spectrometry; two-step TAP purification of Csl4-TAP (IgG sepharose, TEV elution, calmodulin sepharose, EGTA elution) from lysates of mitotic (YPD) and meiotic (six hours in SPO) SK1 cells; two protocols (IP method 1: 10 mM Tris pH 7.5, 120 mM NaCl, 5 mM MgCl2, 0.1% NP-40 washes; IP method 2: TMN150, 150 mM NaCl); untagged strains as controls; electrospray mass spectrometry).

**Q.** How did the binding turn out when B1 was run?
**A.** The binding was “binds weakly”.

**Q.** B2 was tested. Which binding did it give?
**A.** Its binding is “binds weakly”.

**Q.** With B3 as the binder, how does the binding read?
**A.** Its binding is “binds weakly”.

**Q.** For B4, which binding is on record?
**A.** Its binding is “binds weakly”.

**Q.** With B5 as the binder, how does the binding read?
**A.** The binding was “binds weakly”.

**Q.** Which binding does the source give for B6 here?
**A.** Its binding is “binds”.
